Source: article PMC9163791
Results are given in words; binding and its absence hold for the method and conditions named. Binding seen in cells or lysates may run through a third protein. These calls come from enrichment with a bait or labelling near it, and not all partners need be listed.

Sequences of proteins named here, by UniProt entry; tags and fusion partners are left off.
UniProt P28482: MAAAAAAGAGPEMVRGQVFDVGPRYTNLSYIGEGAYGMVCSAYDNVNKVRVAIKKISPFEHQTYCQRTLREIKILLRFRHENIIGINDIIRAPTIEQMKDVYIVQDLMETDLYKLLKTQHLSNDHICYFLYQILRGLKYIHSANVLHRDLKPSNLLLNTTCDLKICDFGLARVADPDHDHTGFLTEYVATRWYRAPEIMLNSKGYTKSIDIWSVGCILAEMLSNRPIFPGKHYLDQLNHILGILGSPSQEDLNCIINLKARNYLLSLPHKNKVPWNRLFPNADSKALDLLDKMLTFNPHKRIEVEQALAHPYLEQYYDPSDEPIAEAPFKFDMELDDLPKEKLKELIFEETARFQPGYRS
UniProt Q9HCE7: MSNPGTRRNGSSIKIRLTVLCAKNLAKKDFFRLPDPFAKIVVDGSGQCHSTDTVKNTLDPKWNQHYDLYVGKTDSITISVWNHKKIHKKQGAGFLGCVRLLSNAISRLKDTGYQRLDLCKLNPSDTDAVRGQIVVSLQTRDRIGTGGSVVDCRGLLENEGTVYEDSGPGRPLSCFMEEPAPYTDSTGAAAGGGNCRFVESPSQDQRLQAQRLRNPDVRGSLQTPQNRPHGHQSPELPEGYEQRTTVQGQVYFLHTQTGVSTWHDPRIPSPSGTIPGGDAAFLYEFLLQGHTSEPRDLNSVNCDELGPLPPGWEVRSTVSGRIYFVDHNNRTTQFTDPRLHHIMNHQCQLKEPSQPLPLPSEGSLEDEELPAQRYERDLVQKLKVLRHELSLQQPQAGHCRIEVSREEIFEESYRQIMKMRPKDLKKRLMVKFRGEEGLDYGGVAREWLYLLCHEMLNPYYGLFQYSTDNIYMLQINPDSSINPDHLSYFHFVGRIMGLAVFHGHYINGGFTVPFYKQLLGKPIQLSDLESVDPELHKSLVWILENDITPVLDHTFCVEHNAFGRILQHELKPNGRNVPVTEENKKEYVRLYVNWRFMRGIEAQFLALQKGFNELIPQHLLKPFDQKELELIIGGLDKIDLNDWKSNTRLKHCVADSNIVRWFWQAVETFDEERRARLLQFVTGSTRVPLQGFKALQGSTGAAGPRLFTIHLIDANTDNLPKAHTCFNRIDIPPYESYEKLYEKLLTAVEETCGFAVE

Biological target: Flag-tagged ERK2 (human) (UniProt P28482)
Assay: affinity purification with mass spectrometry; anti-Flag IP from MCF-7 cells transfected with Flag-ERK2, SDS-PAGE, Coomassie staining, the indicated band analysed by mass spectrometry

binding: binds
Substance: endogenous Smurf1 (MCF-7) (from UniProt Q9HCE7 1-757)
